In the supplement of paper PMC11732987, “Enantioselective OTUD7B fragment discovery through chemoproteomics screening and high-throughput optimisation” (Communications Chemistry, 2025):
The list shows a part of the results. The data scatter; read single values as rough.

Sequences of proteins named here, by UniProt entry; tags and fusion partners are left off. A change or cut given only in a name is not applied to a line headed by its entry. Residues count along the entry.
UniProt P09936: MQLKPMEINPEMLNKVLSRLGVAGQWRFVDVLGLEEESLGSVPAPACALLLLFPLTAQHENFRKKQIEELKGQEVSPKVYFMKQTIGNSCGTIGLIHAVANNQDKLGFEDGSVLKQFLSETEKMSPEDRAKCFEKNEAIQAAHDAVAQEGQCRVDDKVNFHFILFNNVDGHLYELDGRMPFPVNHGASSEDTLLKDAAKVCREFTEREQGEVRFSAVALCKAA
UniProt P31930, 143-163: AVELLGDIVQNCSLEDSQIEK
UniProt Q709C8: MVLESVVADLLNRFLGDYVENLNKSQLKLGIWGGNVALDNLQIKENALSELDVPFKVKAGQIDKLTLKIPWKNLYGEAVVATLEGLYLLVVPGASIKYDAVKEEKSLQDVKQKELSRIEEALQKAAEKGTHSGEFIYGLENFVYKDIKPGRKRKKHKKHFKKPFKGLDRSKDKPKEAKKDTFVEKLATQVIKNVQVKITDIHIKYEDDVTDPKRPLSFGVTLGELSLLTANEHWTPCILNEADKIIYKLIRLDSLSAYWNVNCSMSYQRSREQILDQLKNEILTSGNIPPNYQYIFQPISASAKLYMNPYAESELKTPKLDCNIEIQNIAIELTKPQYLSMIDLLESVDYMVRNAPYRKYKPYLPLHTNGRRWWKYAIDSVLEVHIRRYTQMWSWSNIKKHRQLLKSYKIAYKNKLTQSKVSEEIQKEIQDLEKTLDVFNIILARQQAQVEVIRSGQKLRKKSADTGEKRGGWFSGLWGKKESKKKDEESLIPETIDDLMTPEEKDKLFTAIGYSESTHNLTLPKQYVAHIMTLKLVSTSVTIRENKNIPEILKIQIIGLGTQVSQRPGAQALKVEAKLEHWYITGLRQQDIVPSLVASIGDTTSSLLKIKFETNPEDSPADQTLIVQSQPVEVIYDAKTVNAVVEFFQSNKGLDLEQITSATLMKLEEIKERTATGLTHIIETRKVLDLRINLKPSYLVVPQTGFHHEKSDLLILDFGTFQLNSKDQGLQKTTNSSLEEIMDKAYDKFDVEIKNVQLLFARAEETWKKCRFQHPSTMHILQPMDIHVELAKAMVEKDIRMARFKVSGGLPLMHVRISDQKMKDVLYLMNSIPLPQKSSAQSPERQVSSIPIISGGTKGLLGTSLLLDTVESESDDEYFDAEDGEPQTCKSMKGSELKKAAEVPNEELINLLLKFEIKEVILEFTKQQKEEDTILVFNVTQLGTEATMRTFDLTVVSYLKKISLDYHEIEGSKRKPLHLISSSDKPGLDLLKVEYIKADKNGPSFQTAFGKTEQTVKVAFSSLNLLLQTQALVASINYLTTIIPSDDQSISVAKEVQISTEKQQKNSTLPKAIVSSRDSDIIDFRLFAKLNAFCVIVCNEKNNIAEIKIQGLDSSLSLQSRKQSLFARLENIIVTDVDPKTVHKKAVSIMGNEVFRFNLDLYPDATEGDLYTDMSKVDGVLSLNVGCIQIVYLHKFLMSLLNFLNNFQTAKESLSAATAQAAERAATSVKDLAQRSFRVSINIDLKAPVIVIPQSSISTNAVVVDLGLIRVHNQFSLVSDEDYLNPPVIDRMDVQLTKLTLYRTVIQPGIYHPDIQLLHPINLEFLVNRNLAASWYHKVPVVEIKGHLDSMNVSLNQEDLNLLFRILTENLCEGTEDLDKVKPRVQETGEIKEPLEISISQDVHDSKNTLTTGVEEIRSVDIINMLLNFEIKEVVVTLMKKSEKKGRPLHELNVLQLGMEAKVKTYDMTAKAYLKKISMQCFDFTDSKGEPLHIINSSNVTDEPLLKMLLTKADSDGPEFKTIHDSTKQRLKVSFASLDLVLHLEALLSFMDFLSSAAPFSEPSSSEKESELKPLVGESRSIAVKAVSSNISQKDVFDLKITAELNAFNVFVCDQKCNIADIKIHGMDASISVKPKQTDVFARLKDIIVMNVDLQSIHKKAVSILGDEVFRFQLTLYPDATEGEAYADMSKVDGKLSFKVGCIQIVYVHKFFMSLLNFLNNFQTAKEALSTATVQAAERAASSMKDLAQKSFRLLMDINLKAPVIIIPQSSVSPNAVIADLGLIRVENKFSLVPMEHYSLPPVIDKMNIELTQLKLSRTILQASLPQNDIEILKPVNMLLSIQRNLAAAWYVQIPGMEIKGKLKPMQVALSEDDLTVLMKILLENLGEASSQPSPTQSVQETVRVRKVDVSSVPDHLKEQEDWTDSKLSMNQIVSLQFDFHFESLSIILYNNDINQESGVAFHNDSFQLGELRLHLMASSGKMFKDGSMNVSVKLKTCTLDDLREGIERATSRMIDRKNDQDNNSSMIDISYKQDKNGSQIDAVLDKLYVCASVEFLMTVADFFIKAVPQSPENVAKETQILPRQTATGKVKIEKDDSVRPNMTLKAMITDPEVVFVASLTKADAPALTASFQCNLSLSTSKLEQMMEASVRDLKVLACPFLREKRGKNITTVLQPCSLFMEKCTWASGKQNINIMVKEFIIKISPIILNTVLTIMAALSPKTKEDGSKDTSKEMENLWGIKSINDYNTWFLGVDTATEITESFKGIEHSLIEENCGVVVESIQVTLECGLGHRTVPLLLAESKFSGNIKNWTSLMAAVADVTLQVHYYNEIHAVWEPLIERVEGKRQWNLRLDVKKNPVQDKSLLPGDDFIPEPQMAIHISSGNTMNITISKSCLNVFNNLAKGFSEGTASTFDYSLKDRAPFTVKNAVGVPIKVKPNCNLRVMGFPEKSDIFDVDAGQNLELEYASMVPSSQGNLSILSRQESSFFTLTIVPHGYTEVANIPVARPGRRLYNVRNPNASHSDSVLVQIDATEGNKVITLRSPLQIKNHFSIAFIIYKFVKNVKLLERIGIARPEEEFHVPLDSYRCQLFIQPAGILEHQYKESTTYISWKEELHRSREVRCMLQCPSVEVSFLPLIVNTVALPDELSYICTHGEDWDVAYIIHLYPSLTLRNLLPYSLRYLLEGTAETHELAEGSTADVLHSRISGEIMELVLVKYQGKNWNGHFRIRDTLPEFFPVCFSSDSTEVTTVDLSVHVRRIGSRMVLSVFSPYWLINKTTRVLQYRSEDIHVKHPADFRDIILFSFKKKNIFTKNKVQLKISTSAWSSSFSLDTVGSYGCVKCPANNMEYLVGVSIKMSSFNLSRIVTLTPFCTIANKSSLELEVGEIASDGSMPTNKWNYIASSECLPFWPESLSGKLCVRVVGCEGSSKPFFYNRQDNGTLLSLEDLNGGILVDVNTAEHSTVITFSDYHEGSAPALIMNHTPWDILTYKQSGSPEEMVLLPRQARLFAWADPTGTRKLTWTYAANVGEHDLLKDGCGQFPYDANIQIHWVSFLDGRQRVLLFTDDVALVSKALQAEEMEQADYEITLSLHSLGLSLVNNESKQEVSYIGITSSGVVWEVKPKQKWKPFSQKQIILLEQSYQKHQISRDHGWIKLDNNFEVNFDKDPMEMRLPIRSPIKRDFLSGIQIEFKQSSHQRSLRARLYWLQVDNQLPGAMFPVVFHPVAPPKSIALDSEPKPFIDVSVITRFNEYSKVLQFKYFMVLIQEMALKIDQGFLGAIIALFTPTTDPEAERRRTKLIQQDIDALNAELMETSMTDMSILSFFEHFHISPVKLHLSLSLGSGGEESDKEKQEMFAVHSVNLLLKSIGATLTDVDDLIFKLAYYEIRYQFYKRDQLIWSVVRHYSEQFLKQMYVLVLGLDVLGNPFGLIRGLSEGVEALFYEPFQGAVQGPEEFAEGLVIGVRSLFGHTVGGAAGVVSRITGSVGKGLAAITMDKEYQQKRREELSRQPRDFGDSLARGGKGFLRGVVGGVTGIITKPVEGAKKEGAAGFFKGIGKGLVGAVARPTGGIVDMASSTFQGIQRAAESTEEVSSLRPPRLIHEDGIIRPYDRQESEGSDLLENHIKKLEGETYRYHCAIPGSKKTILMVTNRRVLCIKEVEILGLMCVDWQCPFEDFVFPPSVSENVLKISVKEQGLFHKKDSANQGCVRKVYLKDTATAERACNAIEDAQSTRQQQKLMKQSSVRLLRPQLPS
UniProt Q8NFA0: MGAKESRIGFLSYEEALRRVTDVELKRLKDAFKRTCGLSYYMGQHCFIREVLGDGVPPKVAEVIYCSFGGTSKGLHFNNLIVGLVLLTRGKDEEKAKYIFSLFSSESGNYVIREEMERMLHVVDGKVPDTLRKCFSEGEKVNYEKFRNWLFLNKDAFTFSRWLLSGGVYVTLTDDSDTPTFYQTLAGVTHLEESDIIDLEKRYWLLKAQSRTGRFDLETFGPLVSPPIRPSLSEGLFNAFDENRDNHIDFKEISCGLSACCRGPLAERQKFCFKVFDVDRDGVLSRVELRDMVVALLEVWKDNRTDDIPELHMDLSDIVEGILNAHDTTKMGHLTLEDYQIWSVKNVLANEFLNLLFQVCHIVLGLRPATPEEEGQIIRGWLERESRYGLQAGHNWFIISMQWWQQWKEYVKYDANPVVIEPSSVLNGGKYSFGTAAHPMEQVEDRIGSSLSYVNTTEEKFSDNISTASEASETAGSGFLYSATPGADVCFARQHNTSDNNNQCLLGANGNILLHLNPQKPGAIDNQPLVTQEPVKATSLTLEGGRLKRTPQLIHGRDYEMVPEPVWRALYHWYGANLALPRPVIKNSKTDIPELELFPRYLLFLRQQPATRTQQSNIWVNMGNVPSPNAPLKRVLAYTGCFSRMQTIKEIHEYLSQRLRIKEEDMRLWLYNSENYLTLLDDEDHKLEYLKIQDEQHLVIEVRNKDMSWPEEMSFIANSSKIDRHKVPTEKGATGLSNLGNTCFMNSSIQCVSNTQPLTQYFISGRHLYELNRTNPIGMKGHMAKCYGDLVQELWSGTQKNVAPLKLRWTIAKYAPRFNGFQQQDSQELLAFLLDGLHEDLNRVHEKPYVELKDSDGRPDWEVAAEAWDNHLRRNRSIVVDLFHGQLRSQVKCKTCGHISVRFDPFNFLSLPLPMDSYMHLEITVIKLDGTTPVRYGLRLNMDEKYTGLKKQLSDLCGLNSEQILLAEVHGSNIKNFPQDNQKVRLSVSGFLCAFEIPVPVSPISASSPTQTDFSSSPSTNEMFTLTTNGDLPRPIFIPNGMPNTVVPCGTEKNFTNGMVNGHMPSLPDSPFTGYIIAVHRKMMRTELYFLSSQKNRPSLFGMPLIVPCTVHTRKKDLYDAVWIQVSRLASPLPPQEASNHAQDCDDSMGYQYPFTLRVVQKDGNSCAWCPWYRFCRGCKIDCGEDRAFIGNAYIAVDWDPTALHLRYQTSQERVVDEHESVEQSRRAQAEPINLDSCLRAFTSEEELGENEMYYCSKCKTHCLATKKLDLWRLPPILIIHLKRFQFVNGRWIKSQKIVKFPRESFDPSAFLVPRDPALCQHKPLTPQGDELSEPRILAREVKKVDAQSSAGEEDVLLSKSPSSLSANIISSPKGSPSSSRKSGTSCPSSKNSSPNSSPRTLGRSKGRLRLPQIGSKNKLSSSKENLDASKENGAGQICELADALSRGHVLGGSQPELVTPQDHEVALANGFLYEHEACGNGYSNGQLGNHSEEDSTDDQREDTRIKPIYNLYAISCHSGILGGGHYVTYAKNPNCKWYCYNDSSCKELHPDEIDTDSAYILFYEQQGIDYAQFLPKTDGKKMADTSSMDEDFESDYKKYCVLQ
UniProt Q9P253: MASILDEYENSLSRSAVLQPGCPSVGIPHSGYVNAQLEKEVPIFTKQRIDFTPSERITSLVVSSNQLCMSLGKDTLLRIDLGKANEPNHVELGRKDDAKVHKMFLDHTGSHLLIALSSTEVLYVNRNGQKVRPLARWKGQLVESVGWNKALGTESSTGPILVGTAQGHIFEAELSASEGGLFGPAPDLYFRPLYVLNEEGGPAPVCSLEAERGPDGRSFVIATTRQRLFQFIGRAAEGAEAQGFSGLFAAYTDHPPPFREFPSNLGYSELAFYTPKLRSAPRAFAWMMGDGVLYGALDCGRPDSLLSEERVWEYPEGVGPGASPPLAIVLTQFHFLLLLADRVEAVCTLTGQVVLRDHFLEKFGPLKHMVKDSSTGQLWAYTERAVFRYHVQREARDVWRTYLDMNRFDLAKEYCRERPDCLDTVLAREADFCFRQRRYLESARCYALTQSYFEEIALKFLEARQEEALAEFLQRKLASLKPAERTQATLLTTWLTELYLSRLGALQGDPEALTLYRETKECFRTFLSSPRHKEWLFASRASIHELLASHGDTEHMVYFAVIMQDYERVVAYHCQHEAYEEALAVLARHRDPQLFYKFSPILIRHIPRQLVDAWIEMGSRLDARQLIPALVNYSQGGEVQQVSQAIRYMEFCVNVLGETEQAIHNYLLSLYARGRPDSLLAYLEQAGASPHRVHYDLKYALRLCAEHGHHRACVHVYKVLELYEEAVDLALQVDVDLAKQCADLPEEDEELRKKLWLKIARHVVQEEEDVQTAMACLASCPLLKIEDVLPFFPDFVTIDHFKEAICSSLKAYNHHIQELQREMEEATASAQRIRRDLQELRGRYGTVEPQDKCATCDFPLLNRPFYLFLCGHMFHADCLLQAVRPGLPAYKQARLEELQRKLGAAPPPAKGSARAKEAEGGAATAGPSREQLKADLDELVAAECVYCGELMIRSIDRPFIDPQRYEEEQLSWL
UniProt O94763, 414-435: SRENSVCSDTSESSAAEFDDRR

compound: ClCC(=O)N[C@@H]1CCCc2ccccc12; assay: log2 mean competition ratio of IA-DTB cysteine labelling (DMSO/compound) (log2 ratio); higher = stronger cysteine engagement by compound; details: 50 µM; treatment time: 4 h; cell line lysate: HEK293T
Protocol: (§1)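 IA-DTB competitive cysteine chemoproteomics in HEK293T RIPA lysate. Lysates were treated with compound 29 or 30 at 50 or 200 µM for 4 h, then IA-DTB (500 µM, 1 h), trypsin-digested, NeutrAvidin-enriched and analysed by diaPASEF. Competition ratio = intensity DMSO / intensity compound (n=4 treated, n=64 DMSO); binding: mean log2 CR ≥ 1 and p ≤ 0.05 plus QC filters. Target is the cysteine site.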

Row | Target | log2 mean competition ratio
1 | USP14 C257 (UniProt P54578) | -0.133
2 | UCHL1 C152 (UniProt P09936) | -0.111
3 | UHRF2 C432 (UniProt Q96PU4) | 0.161
4 | UQCRC1 C154 (UniProt P31930) | -0.252
5 | USP28 C952 (UniProt Q96RU2) | 0.0548
6 | USP15 C570 (UniProt Q9Y4E8) | -0.0791
7 | UTRN C3076 (UniProt P46939) | 0.228
8 | USP46 C222 (UniProt P62068) | -0.132
9 | UQCC1 C124 (UniProt Q9NVA1) | -0.0699
10 | UTP6 C370 (UniProt Q9NYH9) | -0.0622
11 | VCP C105 (UniProt P55072) | 0.143
12 | USPL1 C534 | -0.298
13 | VPS13C C3707 (UniProt Q709C8) | 0.0327
14 | USP34 C907 (UniProt Q70CQ2) | 0.921
15 | UGGT2 C1468 (UniProt Q9NYU1) | 0.114
16 | UTP11 C201 (UniProt Q9Y3A2) | 0.0796
17 | USP30 C234 (UniProt Q70CQ3) | 0.109
18 | VPS29 C15 (UniProt Q9UBQ0) | -0.0673
19 | USP32 C1183 (UniProt Q8NFA0) | -0.117

Row | Target | log2 mean competition ratio
20 | VPS13C C2925 (UniProt Q709C8) | 0.379
21 | UBR4 C953 (UniProt Q5T4S7) | -0.156
22 | USP7 C799 | -0.0828
23 | VPS18 C421 (UniProt Q9P253) | 0.485
24 | UBR5 C2084 (UniProt O95071) | 0.0154
25 | UQCRC2 C125 (UniProt P22695) | 0.0788
26 | URI1 C420 (UniProt O94763) | 0.0829
27 | VAPA C179 (UniProt Q9P0L0) | -0.0426
28 | UIMC1 C445 (UniProt Q96RL1) | 0.148
29 | UPF2 C315 (UniProt Q9HAU5) | -0.263
30 | USP42 C588 (UniProt Q9H9J4) | -0.00672
31 | USP22 C44 (UniProt Q9UPT9) | 0.508
32 | ULBP2 C34 (UniProt Q9BZM5) | -0.415
33 | USP34 C132 (UniProt Q70CQ2) | 0.308
34 | VARS2 C484 | 0.116
35 | USE1 C17 (UniProt Q9NZ43) | -0.058
36 | VARS2 C713 | -0.23
37 | VPS11 C128 (UniProt Q9H270) | -0.199
38 | UNC45A C503 (UniProt Q9H3U1) | 0.199

same assay, conditions: 200 µM; treatment time: 4 h; cell line lysate: HEK293T

Row | Target | log2 mean competition ratio
39 | USP14 C257 (UniProt P54578) | -0.116
40 | UCHL1 C152 (UniProt P09936) | -0.13
41 | UHRF2 C432 (UniProt Q96PU4) | 0.156
42 | UQCRC1 C154 (UniProt P31930) | -0.417
43 | USP28 C952 (UniProt Q96RU2) | -0.181
44 | USP15 C570 (UniProt Q9Y4E8) | -0.0796
45 | UTRN C3076 (UniProt P46939) | -0.165
46 | USP46 C222 (UniProt P62068) | -0.436
47 | UQCC1 C124 (UniProt Q9NVA1) | -0.293
48 | UTP6 C370 (UniProt Q9NYH9) | 0.11
49 | VCP C105 (UniProt P55072) | -0.404
50 | USPL1 C534 | -0.0185
51 | VPS13C C3707 (UniProt Q709C8) | -0.0219
52 | USP34 C907 (UniProt Q70CQ2) | -0.000959
53 | UGGT2 C1468 (UniProt Q9NYU1) | 0.263
54 | UTP11 C201 (UniProt Q9Y3A2) | 0.581
55 | USP30 C234 (UniProt Q70CQ3) | 0.428
56 | VPS29 C15 (UniProt Q9UBQ0) | -0.0693
57 | USP32 C1183 (UniProt Q8NFA0) | 0.25

Row | Target | log2 mean competition ratio
58 | VPS13C C2925 (UniProt Q709C8) | 0.387
59 | UBR4 C953 (UniProt Q5T4S7) | 0.0484
60 | USP7 C799 | -0.192
61 | VPS18 C421 (UniProt Q9P253) | 0.176
62 | UBR5 C2084 (UniProt O95071) | 0.0469
63 | UQCRC2 C125 (UniProt P22695) | -0.337
64 | URI1 C420 (UniProt O94763) | 0.235
65 | VAPA C179 (UniProt Q9P0L0) | 0.0809
66 | UIMC1 C445 (UniProt Q96RL1) | -0.156
67 | UPF2 C315 (UniProt Q9HAU5) | -0.344
68 | USP42 C588 (UniProt Q9H9J4) | 0.0135
69 | USP22 C44 (UniProt Q9UPT9) | -0.265
70 | ULBP2 C34 (UniProt Q9BZM5) | 0.0844
71 | USP34 C132 (UniProt Q70CQ2) | 0.21
72 | VARS2 C484 | -0.258
73 | USE1 C17 (UniProt Q9NZ43) | -0.189
74 | VARS2 C713 | -0.0119
75 | VPS11 C128 (UniProt Q9H270) | 0.0715
76 | UNC45A C503 (UniProt Q9H3U1) | 0.163

compound: ClCC(=O)N[C@H]1CCCc2ccccc12; assay: as above; details: 50 µM; treatment time: 4 h; cell line lysate: HEK293T
Protocol: as §1

Row | Target | log2 mean competition ratio
77 | USP14 C257 (UniProt P54578) | -0.371
78 | UCHL1 C152 (UniProt P09936) | 0.275
79 | UHRF2 C432 (UniProt Q96PU4) | 0.36
80 | UQCRC1 C154 (UniProt P31930) | -0.0682
81 | USP28 C952 (UniProt Q96RU2) | 0.562
82 | USP15 C570 (UniProt Q9Y4E8) | -0.0515
83 | UTRN C3076 (UniProt P46939) | 1.01
84 | USP46 C222 (UniProt P62068) | -0.257
85 | UQCC1 C124 (UniProt Q9NVA1) | 0.294
86 | UTP6 C370 (UniProt Q9NYH9) | 0.317
87 | VCP C105 (UniProt P55072) | 0.293
88 | USPL1 C534 | -0.179
89 | VPS13C C3707 (UniProt Q709C8) | -0.139
90 | USP34 C907 (UniProt Q70CQ2) | 0.0882
91 | UGGT2 C1468 (UniProt Q9NYU1) | -0.0134
92 | UTP11 C201 (UniProt Q9Y3A2) | 0.394
93 | USP30 C234 (UniProt Q70CQ3) | 0.336
94 | VPS29 C15 (UniProt Q9UBQ0) | 0.194
95 | USP32 C1183 (UniProt Q8NFA0) | -0.483

Row | Target | log2 mean competition ratio
96 | VPS13C C2925 (UniProt Q709C8) | -0.0574
97 | UBR4 C953 (UniProt Q5T4S7) | -0.164
98 | USP7 C799 | 0.0692
99 | VPS18 C421 (UniProt Q9P253) | 0.242
100 | UBR5 C2084 (UniProt O95071) | 0.29
101 | UQCRC2 C125 (UniProt P22695) | 0.0805
102 | URI1 C420 (UniProt O94763) | -0.14
103 | VAPA C179 (UniProt Q9P0L0) | -0.0281
104 | UIMC1 C445 (UniProt Q96RL1) | 0.561
105 | UPF2 C315 (UniProt Q9HAU5) | 0.307
106 | USP42 C588 (UniProt Q9H9J4) | -0.000213
107 | USP22 C44 (UniProt Q9UPT9) | 0.538
108 | ULBP2 C34 (UniProt Q9BZM5) | 0.0988
109 | USP34 C132 (UniProt Q70CQ2) | -0.0646
110 | VARS2 C484 | 0.412
111 | USE1 C17 (UniProt Q9NZ43) | 0.132
112 | VARS2 C713 | -0.454
113 | VPS11 C128 (UniProt Q9H270) | 0.192
114 | UNC45A C503 (UniProt Q9H3U1) | 0.432
